Data reported in paper PMC11297141.

By UniProt entry, the sequences of proteins in these tests, tags left out. Where a name states a change or a piece, a line headed by the entry shows the natural chain unless it says otherwise. Residues count along the entry.
UniProt P10636: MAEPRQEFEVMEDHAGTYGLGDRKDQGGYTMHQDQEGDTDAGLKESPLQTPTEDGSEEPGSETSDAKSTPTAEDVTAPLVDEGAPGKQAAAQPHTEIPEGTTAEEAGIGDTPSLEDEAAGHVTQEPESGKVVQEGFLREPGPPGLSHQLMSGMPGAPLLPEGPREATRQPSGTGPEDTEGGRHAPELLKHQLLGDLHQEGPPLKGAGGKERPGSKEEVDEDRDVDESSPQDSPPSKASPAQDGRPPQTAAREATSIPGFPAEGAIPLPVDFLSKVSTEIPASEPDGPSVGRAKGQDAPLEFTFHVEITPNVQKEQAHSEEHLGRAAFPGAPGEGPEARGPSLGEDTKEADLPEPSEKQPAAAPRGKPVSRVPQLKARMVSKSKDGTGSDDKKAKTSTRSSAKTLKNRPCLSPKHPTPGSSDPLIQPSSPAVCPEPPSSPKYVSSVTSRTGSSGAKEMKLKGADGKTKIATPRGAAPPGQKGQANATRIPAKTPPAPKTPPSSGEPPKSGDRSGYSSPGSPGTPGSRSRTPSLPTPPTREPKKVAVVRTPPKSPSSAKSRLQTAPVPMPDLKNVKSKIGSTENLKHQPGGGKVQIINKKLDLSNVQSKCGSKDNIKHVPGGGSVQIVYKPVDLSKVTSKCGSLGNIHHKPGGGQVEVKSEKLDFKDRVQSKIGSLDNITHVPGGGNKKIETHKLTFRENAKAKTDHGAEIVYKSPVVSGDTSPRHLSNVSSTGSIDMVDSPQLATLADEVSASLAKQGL
UniProt P22607, residues 23-806: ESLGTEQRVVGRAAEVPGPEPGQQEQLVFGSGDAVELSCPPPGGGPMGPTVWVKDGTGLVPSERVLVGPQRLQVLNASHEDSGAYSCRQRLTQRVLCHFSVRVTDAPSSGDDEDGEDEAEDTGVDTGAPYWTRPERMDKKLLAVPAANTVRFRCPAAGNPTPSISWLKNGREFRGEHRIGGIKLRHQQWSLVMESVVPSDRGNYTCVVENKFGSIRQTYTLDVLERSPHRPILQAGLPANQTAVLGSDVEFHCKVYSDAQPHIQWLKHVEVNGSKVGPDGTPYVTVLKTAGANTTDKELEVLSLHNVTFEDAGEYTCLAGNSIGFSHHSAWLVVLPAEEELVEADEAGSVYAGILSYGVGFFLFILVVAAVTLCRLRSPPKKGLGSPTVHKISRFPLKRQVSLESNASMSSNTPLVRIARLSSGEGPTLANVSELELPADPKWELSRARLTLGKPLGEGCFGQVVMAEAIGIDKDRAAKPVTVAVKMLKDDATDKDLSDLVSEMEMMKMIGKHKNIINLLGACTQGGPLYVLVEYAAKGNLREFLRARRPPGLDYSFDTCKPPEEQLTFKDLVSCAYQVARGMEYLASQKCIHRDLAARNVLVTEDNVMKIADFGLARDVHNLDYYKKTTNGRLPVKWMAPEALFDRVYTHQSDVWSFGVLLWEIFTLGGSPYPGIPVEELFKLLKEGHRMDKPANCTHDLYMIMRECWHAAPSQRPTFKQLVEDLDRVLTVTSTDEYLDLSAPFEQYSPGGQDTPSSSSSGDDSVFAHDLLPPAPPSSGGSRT
UniProt Q61851, residues 21-801: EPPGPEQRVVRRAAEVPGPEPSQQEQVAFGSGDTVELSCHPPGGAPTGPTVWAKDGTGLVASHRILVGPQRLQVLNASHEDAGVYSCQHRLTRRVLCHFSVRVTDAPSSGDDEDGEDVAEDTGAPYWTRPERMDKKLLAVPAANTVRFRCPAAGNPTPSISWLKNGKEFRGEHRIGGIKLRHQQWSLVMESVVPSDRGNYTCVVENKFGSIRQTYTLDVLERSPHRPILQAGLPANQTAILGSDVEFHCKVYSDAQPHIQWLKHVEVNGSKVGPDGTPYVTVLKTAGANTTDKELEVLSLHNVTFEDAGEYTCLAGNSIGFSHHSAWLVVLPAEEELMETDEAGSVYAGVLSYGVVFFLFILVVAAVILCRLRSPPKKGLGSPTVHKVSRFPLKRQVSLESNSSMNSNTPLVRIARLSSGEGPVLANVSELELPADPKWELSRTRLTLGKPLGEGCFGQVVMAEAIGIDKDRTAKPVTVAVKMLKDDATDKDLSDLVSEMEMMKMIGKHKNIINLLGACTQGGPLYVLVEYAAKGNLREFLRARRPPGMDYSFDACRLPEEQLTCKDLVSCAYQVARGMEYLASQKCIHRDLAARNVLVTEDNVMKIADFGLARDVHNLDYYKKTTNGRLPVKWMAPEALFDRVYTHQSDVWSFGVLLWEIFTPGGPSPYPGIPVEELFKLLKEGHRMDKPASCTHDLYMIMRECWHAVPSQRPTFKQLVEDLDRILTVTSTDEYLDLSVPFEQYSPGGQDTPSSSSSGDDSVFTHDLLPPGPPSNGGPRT

Columns and labels:
[1] = target: extracellular human tau P301L from tau-conditioned medium (TCM) (human) (UniProt P10636); test: co-IP; tau immunoprecipitated with the anti-human tau antibody Tau13 from lysates of recipient HT22 cells (given tau-conditioned medium); blots for FGFR3 and LRP1
FGFR3-FLAG = FGFR3-FLAG (UniProt P22607); test: co-IP; FGFR3-FLAG immunoprecipitated with an anti-FLAG antibody from HT22 cells overexpressing FGFR3-FLAG and given extracellular tau; blot for tau

Row | binding [1] | binding (FGFR3-FLAG) | Substance
1 | binds |  | fibroblast growth factor receptor 3 (FGFR3), endogenous in mouse neuronal cells (from UniProt Q61851 21-801)
2 |  | binds | extracellular human tau P301L from tau-conditioned medium (TCM) (from UniProt P10636-8)

These are yes or no findings as the source states them, for the method shown. In cells and extracts the contact can be indirect. A result given as binding can be weak or reduced; the word gives no strength.
